According to patent US20250107528A1, “PYRAZINE COMPOUNDS FOR THE CONTROL OF INVERTEBRATE PESTS” (BASF SE, priority 2021, published 2025):
Some results were stated once for a whole list of compounds, not compound by compound.

Columns and labels:
Assay type in all cases: in vivo
Myzus persicae = test: Green peach aphid (Myzus persicae) systemic test, artificial diet in 96-well microtiter plates; conditions: 2500 ppm; adult aphids on treated artificial diet; 3 days
Description: If not otherwise specified, the test solutions were prepared as follow:
The active compound was dissolved at the desired concentration in a mixture of 1:1 (vol:vol) distilled water:acetone. The test solution was prepared on the day of use.
B.1 Green Peach Aphid (Myzus persicae)
For evaluating control of green peach aphid (Myzus persicae) through systemic means, the test unit consisted of 96-well-microtiter plates containing liquid artificial diet under an artificial mem brane.
The compounds were formulated using a solution containing 75% v/v water and 25% v/v DMSO. Different concentrations of formulated compounds were pipetted into the aphid diet, using a custom built pipetter, at two replications.
After application, 5-8 adult aphids were placed on the artificial membrane inside the microtiter plate wells. The aphids were then allowed to suck on the treated aphid diet and incubated at about 23±1° C. and about 50±5% relative humidity for 3 days. Aphid mortality and fecundity was then visually assessed.

Anthonomus grandis = test: Boll weevil (Anthonomus grandis) egg/larval test on insect diet in 96-well microtiter plates; conditions: 2500 ppm; egg and larval mortality; 5 days
Aedes aegypti = conditions: 2500 ppm; larval mortality; 2 days
Spodoptera eridania = test: Southern armyworm (Spodoptera eridania), 2nd instar larvae, foliar spray on lima bean plants; conditions: 300 ppm; 2nd instar larvae on sprayed lima bean; 4 days after treatment
Heliothis virescens = test: Tobacco budworm (Heliothis virescens) egg/larval test on insect diet in 96-well microtiter plates; conditions: 2500 ppm; egg and larval mortality; 5 days
Description: B.2 Tobacco Budworm (Heliothis virescens)
For evaluating control of tobacco budworm (Heliothis virescens), the test unit consisted of 96-well-microtiter plates containing an insect diet and 15-25 H. virescens eggs.
The compounds were formulated using a solution containing 75% v/v water and 25% v/v DMSO. Different concentrations of formulated compounds were sprayed onto the insect diet at 10 μl, using a custom-built micro atomizer, at two replications.
After application, microtiter plates were incubated at about 28±1° C. and about 80±5% relative humidity for 5 days. Egg and larval mortality was then visually assessed.

Measured: mortality in comparison with untreated controls

CON=C(N)c1nccnc1C(C)N(CC1CC1)C(=O)c1cc(C(F)(F)F)cc(C(F)(F)F)c1 (stereo not drawn) [I-4]
not listed: Heliothis virescens
at least 75%: all other assays above

CON=C(C)c1nccnc1C(C)NC(=O)c1cc(C(F)(F)F)cc(C2(C#N)CC2)c1 (stereo not drawn) [I-7]
at least 75%: all assays above

CON=C(C)c1nccnc1C(C)N(CC1CC1)C(=O)c1cc(Cl)cc(S(C)(=O)=O)c1 (stereo not drawn) [I-8]
at least 75%: Myzus persicae | Anthonomus grandis | Aedes aegypti

CON=C(C)c1nccnc1C(C)N(CC1CC1)C(=O)c1cc(OC(F)F)cc(C(F)(F)F)c1 (stereo not drawn) [I-18]
not listed: Heliothis virescens
at least 75%: all other assays above

CNC(=NOC)c1nccnc1C(C)NC(=O)c1cc(C(F)(F)F)cc(C(F)(F)F)c1 (stereo not drawn) [I-35]
not listed: Spodoptera eridania
at least 75%: all other assays above

CC(NC(=O)c1cc(C(F)(F)F)cc(C(F)(F)F)c1)c1nccnc1C=NN1C(=O)CNC1=O (stereo not drawn) [I-50]
at least 75%: Myzus persicae | Anthonomus grandis | Aedes aegypti

CC(=NNC(=O)N1CCSCC1)c1nccnc1C(C)NC(=O)c1cc(C(F)(F)F)cc(C(F)(F)F)c1 (stereo not drawn) [I-99]
at least 75%: Myzus persicae | Anthonomus grandis | Aedes aegypti

CC(NC(=O)c1cc(C(F)(F)F)cc(C(F)(F)F)c1)c1nccnc1C=NOCc1nc[nH]n1 (stereo not drawn) [I-111]
not listed: Myzus persicae
at least 75%: all other assays above

CC(NC(=O)c1cc(C(F)(F)F)cc(C(F)(F)F)c1)c1nccnc1C=NOCCCC(F)(F)F (stereo not drawn) [I-112]
not listed: Myzus persicae
at least 75%: all other assays above

CC(NC(=O)c1cc(C(F)(F)F)cc(C(F)(F)F)c1)c1nccnc1C=NNC(=O)NCCSC(F)(F)F (stereo not drawn) [I-125]
not listed: Myzus persicae
at least 75%: all other assays above

CCN(C)C(=O)NN=Cc1nccnc1C(C)NC(=O)c1cc(C(F)(F)F)cc(C(F)(F)F)c1 (stereo not drawn) [I-126]
not listed: Heliothis virescens
at least 75%: all other assays above

CCNC(=O)NN=Cc1nccnc1C(C)NC(=O)c1cc(C(F)(F)F)cc(C(F)(F)F)c1 (stereo not drawn) [I-129]
not listed: Myzus persicae
at least 75%: all other assays above

CON=C(C)c1nccnc1C(C)NC(=O)c1cc(Cl)cc(S(C)(=O)=O)c1 (stereo not drawn) [I-132]
at least 75%: Myzus persicae | Anthonomus grandis | Aedes aegypti

C#CCON=Cc1nccnc1C(C)NC(=O)c1cc(C(F)(F)F)cc(C(F)(F)F)c1 (stereo not drawn) [I-133]
not listed: Myzus persicae
at least 75%: all other assays above

Cc1ncc(CON=Cc2nccnc2C(C)NC(=O)c2cc(C(F)(F)F)cc(C(F)(F)F)c2)s1 (stereo not drawn) [I-136]
not listed: Myzus persicae
at least 75%: all other assays above

CC(=NOCc1cc(O)nc(C(C)C)n1)c1nccnc1C(C)NC(=O)c1cc(C(F)(F)F)cc(C(F)(F)F)c1 (stereo not drawn) [I-148]
not listed: Myzus persicae
at least 75%: all other assays above

CC(=NOCc1csc(Cl)c1)c1nccnc1C(C)NC(=O)c1cc(C(F)(F)F)cc(C(F)(F)F)c1 (stereo not drawn) [I-150]
not listed: Myzus persicae
at least 75%: all other assays above

CC(=NOCCN1CCCC1=O)c1nccnc1C(C)NC(=O)c1cc(C(F)(F)F)cc(C(F)(F)F)c1 (stereo not drawn) [I-152]
at least 75%: Myzus persicae

CC(=NOC(C)c1ccc(OC(F)(F)C(F)F)cc1)c1nccnc1C(C)NC(=O)c1cc(C(F)(F)F)cc(C(F)(F)F)c1 (stereo not drawn) [I-155]
not listed: Myzus persicae
at least 75%: all other assays above

CC(=NOCCN(C)Cc1ccccc1)c1nccnc1C(C)NC(=O)c1cc(C(F)(F)F)cc(C(F)(F)F)c1 (stereo not drawn) [I-157]
not listed: Myzus persicae
at least 75%: all other assays above

CCN(C)C(=NOC)c1nccnc1C(C)NC(=O)c1cc(C(F)(F)F)cc(C(F)(F)F)c1 (stereo not drawn) [I-169]
not listed: Spodoptera eridania
at least 75%: all other assays above

CON=C(NCC#N)c1nccnc1C(C)NC(=O)c1cc(C(F)(F)F)cc(C(F)(F)F)c1 (stereo not drawn) [I-171]
not listed: Myzus persicae
at least 75%: all other assays above

CON=C(N)c1nccnc1C(C)NC(=O)c1cc(Cl)cc(C(F)(F)F)c1 (stereo not drawn) [I-174]
not listed: Spodoptera eridania
at least 75%: all other assays above

CON=C(N)c1nccnc1C(C)NC(=O)c1cc(Cl)nc(Cl)c1 (stereo not drawn) [I-180]
not listed: Spodoptera eridania
at least 75%: all other assays above
